Laboratory results reported in the supplement of paper PMC12067093, “Discovery and optimisation of a covalent ligand for TRIM25 and its application to targeted protein ubiquitination” (Chemical Science, 2025).
Some of the results follow.

The chains behind the UniProt entries cited, without tags or fusion partners. Where a name states a change or a piece, a line headed by the entry shows the natural chain unless it says otherwise.
UniProt Q92616, whole entry, looked up: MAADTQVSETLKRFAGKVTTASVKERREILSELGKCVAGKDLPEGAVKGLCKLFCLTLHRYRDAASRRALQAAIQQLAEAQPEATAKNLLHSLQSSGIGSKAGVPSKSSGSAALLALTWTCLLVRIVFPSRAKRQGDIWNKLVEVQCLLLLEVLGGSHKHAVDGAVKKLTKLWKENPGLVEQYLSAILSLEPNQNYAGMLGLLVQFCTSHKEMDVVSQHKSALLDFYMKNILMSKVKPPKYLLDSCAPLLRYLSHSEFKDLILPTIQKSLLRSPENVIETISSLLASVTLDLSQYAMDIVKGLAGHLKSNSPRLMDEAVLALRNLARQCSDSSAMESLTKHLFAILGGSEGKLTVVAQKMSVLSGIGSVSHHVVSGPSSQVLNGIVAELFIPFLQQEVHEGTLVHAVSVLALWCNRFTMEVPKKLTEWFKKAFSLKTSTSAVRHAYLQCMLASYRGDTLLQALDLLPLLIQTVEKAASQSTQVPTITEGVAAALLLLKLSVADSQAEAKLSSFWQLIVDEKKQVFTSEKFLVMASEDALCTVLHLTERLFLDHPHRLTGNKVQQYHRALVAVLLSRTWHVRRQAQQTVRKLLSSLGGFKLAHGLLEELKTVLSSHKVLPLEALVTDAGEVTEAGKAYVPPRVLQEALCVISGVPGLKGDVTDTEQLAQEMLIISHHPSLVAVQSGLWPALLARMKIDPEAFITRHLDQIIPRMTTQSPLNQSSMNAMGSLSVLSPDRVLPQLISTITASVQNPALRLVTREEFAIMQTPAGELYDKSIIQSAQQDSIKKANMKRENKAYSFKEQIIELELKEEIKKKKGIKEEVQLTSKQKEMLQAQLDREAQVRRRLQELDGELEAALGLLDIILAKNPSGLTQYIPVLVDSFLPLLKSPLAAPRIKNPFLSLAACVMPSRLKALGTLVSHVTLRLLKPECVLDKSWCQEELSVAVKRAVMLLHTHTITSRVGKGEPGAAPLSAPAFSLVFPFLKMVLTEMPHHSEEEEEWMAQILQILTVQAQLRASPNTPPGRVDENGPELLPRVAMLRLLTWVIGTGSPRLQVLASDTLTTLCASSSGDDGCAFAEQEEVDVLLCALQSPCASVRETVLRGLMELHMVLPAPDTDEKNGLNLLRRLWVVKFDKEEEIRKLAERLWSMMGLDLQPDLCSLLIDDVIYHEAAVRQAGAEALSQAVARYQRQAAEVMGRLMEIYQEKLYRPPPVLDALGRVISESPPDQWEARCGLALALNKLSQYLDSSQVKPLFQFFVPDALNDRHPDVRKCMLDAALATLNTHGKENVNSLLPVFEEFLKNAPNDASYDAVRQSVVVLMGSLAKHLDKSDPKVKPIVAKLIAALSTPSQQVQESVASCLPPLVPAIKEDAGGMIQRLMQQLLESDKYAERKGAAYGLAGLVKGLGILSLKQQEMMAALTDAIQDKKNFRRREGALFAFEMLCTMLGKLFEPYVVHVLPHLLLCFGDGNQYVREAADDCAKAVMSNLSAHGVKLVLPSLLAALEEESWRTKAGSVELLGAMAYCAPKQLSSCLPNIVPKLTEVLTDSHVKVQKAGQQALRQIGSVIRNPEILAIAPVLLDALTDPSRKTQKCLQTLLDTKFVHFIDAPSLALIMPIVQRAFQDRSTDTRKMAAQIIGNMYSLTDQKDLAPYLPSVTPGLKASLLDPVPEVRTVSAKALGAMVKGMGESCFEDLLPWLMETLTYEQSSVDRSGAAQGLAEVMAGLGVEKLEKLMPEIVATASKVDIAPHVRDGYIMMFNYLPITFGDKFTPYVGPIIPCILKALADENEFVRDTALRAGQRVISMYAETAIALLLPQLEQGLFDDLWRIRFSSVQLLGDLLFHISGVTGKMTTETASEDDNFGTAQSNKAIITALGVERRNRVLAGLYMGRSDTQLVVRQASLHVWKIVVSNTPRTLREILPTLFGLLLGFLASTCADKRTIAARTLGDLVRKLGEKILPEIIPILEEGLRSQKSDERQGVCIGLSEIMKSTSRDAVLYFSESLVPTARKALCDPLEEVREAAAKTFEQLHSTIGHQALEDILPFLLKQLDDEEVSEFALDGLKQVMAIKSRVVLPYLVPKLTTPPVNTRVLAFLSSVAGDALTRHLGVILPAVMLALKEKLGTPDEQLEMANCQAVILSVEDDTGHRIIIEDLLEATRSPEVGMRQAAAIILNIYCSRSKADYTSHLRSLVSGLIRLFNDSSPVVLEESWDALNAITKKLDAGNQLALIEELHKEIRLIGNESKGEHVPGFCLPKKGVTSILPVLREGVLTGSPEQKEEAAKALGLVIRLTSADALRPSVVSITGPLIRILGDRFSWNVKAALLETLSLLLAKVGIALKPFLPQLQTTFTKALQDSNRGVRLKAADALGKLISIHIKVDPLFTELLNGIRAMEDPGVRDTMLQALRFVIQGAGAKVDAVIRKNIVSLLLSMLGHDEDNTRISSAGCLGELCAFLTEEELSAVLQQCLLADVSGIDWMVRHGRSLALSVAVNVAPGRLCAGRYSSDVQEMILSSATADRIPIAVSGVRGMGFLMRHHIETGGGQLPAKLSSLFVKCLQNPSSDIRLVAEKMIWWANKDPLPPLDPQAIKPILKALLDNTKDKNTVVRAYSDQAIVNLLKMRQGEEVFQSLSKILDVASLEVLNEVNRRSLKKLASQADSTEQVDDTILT
UniProt Q9BRT9, whole entry, looked up: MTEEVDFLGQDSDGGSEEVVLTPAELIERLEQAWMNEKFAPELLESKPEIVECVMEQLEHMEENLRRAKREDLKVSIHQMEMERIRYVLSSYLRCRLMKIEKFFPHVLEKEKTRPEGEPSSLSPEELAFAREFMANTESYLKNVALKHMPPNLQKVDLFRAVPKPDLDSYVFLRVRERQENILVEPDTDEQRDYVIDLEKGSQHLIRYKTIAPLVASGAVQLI
UniProt Q06210: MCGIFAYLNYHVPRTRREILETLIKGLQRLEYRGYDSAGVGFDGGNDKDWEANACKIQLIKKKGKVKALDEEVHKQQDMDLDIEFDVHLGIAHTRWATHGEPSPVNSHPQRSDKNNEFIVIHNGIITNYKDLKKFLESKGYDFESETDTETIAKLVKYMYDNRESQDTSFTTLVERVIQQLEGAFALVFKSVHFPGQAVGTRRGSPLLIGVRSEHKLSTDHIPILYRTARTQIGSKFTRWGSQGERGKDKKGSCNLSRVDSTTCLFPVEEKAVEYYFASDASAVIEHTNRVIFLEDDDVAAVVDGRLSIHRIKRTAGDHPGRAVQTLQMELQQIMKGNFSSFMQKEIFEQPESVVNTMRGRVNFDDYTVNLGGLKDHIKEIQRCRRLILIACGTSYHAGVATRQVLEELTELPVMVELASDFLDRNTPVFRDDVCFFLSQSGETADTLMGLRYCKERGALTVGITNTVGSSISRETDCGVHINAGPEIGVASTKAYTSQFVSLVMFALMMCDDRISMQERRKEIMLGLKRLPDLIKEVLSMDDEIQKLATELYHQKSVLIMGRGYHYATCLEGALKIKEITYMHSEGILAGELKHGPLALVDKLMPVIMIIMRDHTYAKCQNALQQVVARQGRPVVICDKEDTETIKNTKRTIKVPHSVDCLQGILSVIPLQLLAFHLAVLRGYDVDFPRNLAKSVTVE
UniProt P32189: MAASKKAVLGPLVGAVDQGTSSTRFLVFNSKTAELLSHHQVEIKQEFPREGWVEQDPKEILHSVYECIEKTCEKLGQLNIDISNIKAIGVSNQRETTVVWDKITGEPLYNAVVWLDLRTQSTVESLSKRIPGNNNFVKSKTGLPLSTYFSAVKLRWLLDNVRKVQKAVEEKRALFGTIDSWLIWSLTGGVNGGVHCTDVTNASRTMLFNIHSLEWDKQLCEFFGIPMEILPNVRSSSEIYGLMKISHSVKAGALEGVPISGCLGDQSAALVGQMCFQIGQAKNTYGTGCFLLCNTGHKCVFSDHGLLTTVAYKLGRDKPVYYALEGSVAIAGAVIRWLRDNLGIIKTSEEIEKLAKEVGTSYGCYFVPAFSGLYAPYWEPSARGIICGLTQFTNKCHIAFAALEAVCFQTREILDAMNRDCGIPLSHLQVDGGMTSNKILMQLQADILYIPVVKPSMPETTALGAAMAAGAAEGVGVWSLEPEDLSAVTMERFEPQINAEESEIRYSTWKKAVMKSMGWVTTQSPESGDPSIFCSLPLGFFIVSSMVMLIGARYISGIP
UniProt P04406: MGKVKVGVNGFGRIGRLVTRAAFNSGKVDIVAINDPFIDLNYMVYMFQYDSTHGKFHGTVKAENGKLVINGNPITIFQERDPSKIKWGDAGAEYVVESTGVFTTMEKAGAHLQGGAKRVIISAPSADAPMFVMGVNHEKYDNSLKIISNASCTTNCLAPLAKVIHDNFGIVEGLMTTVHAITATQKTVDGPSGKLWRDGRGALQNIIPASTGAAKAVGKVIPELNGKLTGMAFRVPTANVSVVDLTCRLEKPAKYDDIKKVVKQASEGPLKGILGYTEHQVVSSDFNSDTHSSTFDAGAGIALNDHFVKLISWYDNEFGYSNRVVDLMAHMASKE
UniProt Q99684: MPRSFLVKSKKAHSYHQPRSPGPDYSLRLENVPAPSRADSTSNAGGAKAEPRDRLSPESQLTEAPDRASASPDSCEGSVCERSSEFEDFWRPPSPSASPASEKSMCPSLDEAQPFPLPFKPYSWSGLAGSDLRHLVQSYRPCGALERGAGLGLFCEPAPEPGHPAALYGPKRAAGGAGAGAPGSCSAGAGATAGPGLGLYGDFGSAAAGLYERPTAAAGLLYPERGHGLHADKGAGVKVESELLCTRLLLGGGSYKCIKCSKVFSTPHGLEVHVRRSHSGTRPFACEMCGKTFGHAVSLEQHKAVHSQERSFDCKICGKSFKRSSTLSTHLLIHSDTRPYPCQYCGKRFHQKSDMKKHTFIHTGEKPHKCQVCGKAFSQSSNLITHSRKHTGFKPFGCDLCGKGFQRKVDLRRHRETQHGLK
UniProt Q8TEQ6: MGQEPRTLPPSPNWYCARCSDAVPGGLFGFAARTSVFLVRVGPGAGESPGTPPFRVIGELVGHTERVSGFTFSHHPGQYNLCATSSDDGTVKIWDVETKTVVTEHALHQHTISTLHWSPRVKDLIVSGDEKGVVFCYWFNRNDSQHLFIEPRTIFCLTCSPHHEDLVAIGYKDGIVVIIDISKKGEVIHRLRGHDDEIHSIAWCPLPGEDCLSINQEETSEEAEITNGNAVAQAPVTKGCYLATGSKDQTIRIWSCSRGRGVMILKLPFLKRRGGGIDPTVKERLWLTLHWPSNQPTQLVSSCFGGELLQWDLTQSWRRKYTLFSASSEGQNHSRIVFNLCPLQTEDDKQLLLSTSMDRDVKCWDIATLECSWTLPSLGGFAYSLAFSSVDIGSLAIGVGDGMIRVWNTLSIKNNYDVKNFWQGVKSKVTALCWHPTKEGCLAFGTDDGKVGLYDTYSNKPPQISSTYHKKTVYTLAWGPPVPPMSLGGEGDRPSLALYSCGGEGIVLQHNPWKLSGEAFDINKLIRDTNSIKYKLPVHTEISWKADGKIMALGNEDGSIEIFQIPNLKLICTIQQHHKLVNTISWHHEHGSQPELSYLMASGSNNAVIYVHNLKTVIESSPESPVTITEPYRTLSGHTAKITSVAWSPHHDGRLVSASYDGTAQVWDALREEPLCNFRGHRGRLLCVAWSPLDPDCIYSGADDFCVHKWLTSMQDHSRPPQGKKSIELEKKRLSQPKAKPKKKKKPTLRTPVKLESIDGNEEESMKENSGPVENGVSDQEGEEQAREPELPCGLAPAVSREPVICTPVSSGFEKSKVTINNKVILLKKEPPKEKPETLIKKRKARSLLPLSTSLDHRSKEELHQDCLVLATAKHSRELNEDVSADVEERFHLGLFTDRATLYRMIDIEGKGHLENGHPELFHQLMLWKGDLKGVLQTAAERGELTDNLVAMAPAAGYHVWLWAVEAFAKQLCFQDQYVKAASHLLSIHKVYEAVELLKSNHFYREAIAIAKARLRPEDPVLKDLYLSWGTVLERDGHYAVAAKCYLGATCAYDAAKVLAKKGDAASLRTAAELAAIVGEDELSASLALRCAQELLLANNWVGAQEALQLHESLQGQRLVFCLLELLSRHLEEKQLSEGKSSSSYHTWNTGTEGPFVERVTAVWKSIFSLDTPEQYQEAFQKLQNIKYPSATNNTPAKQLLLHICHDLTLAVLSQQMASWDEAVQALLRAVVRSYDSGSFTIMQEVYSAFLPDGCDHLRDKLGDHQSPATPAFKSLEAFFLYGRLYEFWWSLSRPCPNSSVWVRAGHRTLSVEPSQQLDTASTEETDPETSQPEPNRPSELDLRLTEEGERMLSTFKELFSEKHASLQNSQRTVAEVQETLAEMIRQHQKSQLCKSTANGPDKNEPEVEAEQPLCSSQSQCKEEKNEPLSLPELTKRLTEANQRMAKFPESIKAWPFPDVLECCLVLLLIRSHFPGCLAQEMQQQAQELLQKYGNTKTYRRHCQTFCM
UniProt Q9H840: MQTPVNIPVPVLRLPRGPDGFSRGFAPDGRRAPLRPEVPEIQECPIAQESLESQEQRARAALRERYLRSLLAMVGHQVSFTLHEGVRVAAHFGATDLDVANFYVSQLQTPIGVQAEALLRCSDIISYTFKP

Compound: Cc1cc(ccc1-c1ccccc1)C(=O)N1CCCN(CC1)C(=O)CCl [compound 10]
Assay: probe-labelled cysteine peptide fold change vs DMSO (competition) (log2 fold change); higher = less target engagement (more negative = stronger competition)
Details: THP-1, incubation time: 4 h
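Note: competitive profiling in live THP-1 cells: cysteine peptides tagged with an iodoacetamide desthiobiotin (IA-DTB) probe, intensity after compound treatment relative to DMSO-treated cells.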

Target	probe-labelled cysteine peptide fold change (10 µM)	probe-labelled cysteine peptide fold change (50 µM)
GALNT2_Q10471_229_VLTFLDSHCECNEHWLEPLLER (UniProt Q10471)	0.0448	-0.0647
GDI2_P50395_335_KSDIYVCMISFAHNVAAQGK (UniProt P50395)	0.0466	0.149
GAN_Q9H2C0_415_IGCYAAMK (UniProt Q9H2C0)	-0.0133	0.0685
GCN1_Q92616_1781_FTPYVGPIIPCILK (UniProt Q92616)	0.12	0.32
GALT_P07902_130_VMCFHPWSDVTLPLMSVPEIR (UniProt P07902)	0.0562	-0.251
GBE1_Q04446_221_HFTCNVLPR (UniProt Q04446)	0.103	0.146
GIPC1_O14908_189_EGSVIDHIHLISVGDMIEAINGQSLLGCR (UniProt O14908)	0.141	0.0323
GINS4_Q9BRT9_53_FAPELLESKPEIVECVMEQLEHMEENLRR (UniProt Q9BRT9)	0.0768	-0.0213
GART_P22102_93_SAGVQCFGPTAEAAQLESSK (UniProt P22102)	0.0279	0.0457
GCC2_Q8IWJ2_92_AETEQQCLSLK (UniProt Q8IWJ2)	0.312	0.569
GFPT1_Q06210_55_DWEANACK (UniProt Q06210)	-0.0151	-0.0483
GGNBP2_Q9H3C7_92_EVLSALSQLVPCVGCR (UniProt Q9H3C7)	0.105	0.133
GATD1_Q8NB37_122+132_ILQHFHSESKPICAVGHGVAALCCATNEDR (UniProt Q8NB37)	0.29	-0.512
GARS_P41250_444_QHMENEMAHYACDCWDAESK (UniProt P41250)	0.136	-0.0873
GANAB_Q14697_502_DGSDYEGWCWPGSAGYPDFTNPTMR (UniProt Q14697)	-0.189	0.0705
GATD3B_A0A0B4J2D5_244_VVTTPAFMCETALHYIHDGIGAMVR		0.0229
GDI2_P50395_302_VICILSHPIK (UniProt P50395)	-0.022	-0.0296
GCN1_Q92616_2558_CLQNPSSDIR (UniProt Q92616)	0.0554	0.000447
GAR1_Q9NY12_88_CTTDENKVPYFNAPVYLENK (UniProt Q9NY12)	-0.0888	-0.814
GIT1_Q9Y2X7_122_LPCRDDDGVTAK (UniProt Q9Y2X7)	-0.137	-0.385
GK_P32189_299_CVFSDHGLLTTVAYK (UniProt P32189)	0.168	-0.0986

Target	probe-labelled cysteine peptide fold change (10 µM)	probe-labelled cysteine peptide fold change (50 µM)
GFPT1_Q06210_264_VDSTTCLFPVEEK (UniProt Q06210)	-0.0167	0.203
GAPVD1_Q14C86_1253_YFTTVCVR (UniProt Q14C86)	-0.00537	0.122
GIT1_Q9Y2X7_576_KGVSASAVPFTPSSPLLSCSQEGSR (UniProt Q9Y2X7)	-0.316	-0.788
GAPDH_P04406_247_LTGMAFRVPTANVSVVDLTCR (UniProt P04406)	-0.101	-0.518
GDE1_Q9NZC3_127_LCDLTFEQIR (UniProt Q9NZC3)	-0.123	0.0263
GDI2_P50395_202_FDLGQDVIDFTGHALALYRTDDYLDQPCYETINR (UniProt P50395)	-0.369	-0.384
GDI1_P31150_335_KSDIYVCMISYAHNVAAQGK (UniProt P31150)	0.246	0.0153
GATD1_Q8NB37_132_ILQHFHSESKPICAVGHGVAALCCATNEDR (UniProt Q8NB37)	0.201	0.142
GFPT1_Q06210_570_GYHYATCLEGALK (UniProt Q06210)	0.0515	0.0897
GGA2_Q9UJY4_343_VFQNPAGCMK (UniProt Q9UJY4)	-0.124	-0.564
GAS2L1_Q99501_276_CSSTAHRPPQPR (UniProt Q99501)	0.164	-0.148
GFM1_Q96RP9_706_SCTEGKGEYTMEYSR (UniProt Q96RP9)	-0.27	-0.524
GBF1_Q92538_1430_IFVEASLNGGCK (UniProt Q92538)	-0.194	-0.371
GFI1_Q99684_398_KHTGFKPFGCDLCGK (UniProt Q99684)	0.0893	0.374
GGPS1_O95749_205_SFCEDLTEGK (UniProt O95749)	-0.213	-0.233
GFI1_Q99684_342+345_SSTLSTHLLIHSDTRPYPCQYCGK (UniProt Q99684)	0.0509	0.071
GALNT1_Q10472_459_VGIFNCHGMGGNQVFSYTANK (UniProt Q10472)	-0.119	-0.0543
GCFC2_P16383_595_VILEEHSTCENEVSK (UniProt P16383)	-0.33	-0.462
GATM_P50440_324_DPNPMHIDATFNIIGPGIVLSNPDRPCHQIDLFK (UniProt P50440)	0.122	0.703
GIT1_Q9Y2X7_674_HDSFVPCSEK (UniProt Q9Y2X7)	0.054	-0.0553
GAN_Q9H2C0_415_KIGCYAAMK (UniProt Q9H2C0)	-0.0112	-0.2

Target	probe-labelled cysteine peptide fold change (10 µM)	probe-labelled cysteine peptide fold change (50 µM)
GEMIN5_Q8TEQ6_572_LICTIQQHHK (UniProt Q8TEQ6)	0.132	0.173
GIT1_Q9Y2X7_11+14_AEVCADCSAPDPGWASISR (UniProt Q9Y2X7)	0.221	0.491
GCN1_Q92616_1482_EAADDCAK (UniProt Q92616)	0.000972	-0.257
GFM2_Q969S9_329_VTLAQTAVPVLCGSALK (UniProt Q969S9)	-0.0769	0.0109
GHDC_Q8N2G8_377_VVGAYNQCPVVR (UniProt Q8N2G8)	-0.022	-0.191
GCLC_P48506_295_GYVSDIDCR (UniProt P48506)	0.0581	0.0157
GEMIN7_Q9H840_44_RAPLRPEVPEIQECPIAQESLESQEQR (UniProt Q9H840)	-0.272	-1.01
GCAT_O75600_219_LVATDGAFSMDGDIAPLQEICCLASR (UniProt O75600)	0.269	-0.248
GINS1_Q14691_75_CTVAYLYDR (UniProt Q14691)	-0.237	0.21
GCN1_Q92616_147_LVEVQCLLLLEVLGGSHK (UniProt Q92616)	0.136	0.205
GFI1_Q99684_398+401_HTGFKPFGCDLCGK (UniProt Q99684)	-0.0472	0.201
GEMIN2_O14893_63_RVQIEAAQCPDVVVAQIDPK (UniProt O14893)	-0.27	-0.164
GIPC3_Q8TF64_168_EGSIINRIEAVCVGDSIEAINDHSIVGCR (UniProt Q8TF64)	0.00365	-0.113
GCA_P28676_182_IFFDDYVACCVK (UniProt P28676)	0.0552	-0.105
GGA3_Q9NZ52_255_ELFDQCENK (UniProt Q9NZ52)	-0.0153	-0.0928
GBP4_Q96PP9_374_LPTDTLQELLDVHAACER (UniProt Q96PP9)	0.0802	0.00478
GIPC3_Q8TF64_152_IEAVCVGDSIEAINDHSIVGCR (UniProt Q8TF64)	-0.0385	-0.263
GAPDH_P04406_156_IISNASCTTNCLAPLAK (UniProt P04406)	0.00471	-0.496
GATC_O43716_99_SDNVVEGNCADELLQNSHR (UniProt O43716)	-0.533	-0.0176
GCLM_P48507_72_EFPDVLECTVSHAVEK (UniProt P48507)	0.0454	-0.116
GALNT6_Q8NCL4_165_SLGPDTRPPECVDQK (UniProt Q8NCL4)	0.067	0.036

Target	probe-labelled cysteine peptide fold change (10 µM)	probe-labelled cysteine peptide fold change (50 µM)
GAPDHS_O14556_319_VPTPDVSVVDLTCR (UniProt O14556)	-0.281	-0.216
GALNT7_Q86SF2_545_GFETAYCIDSMGK (UniProt Q86SF2)	-0.0613	0.095
GFI1_Q99684_155_GAGLGLFCEPAPEPGHPAALYGPK (UniProt Q99684)	-0.225	1.62
GFM1_Q96RP9_256_AAATDHRQELIECVANSDEQLGEMFLEEK (UniProt Q96RP9)	-0.183	-0.436
GCLC_P48506_152_LGCPGFTLPEVKPNPVEGGASK (UniProt P48506)	0.0625	-0.0144
GCN1_Q92616_1275_CMLDAALATLNTHGK (UniProt Q92616)	-0.0651	-0.157
GCN1_Q92616_2136_LGTPDEQLEMANCQAVILSVEDDTGHR (UniProt Q92616)	-0.0458	0.286
GART_P22102_733_TFNCGVGAVLVVSK (UniProt P22102)	-0.0152	0.193
GAPVD1_Q14C86_789_IEDLRSECSSDFGGK (UniProt Q14C86)	-0.209	-0.31
GAPVD1_Q14C86_789_SECSSDFGGK (UniProt Q14C86)	-0.285	-0.196
GALNT7_Q86SF2_562_TNGGFVELGPCHR (UniProt Q86SF2)	0.0465	0.0262
GATB_O75879_115_CVEAAVMTGLALNCHINKK (UniProt O75879)	0.00108	0.00339
GDI2_P50395_202_TDDYLDQPCYETINR (UniProt P50395)	0.172	0.282
GCN1_Q92616_1527_AGSVELLGAMAYCAPK (UniProt Q92616)	0.0969	-0.196
GIT2_Q14161_149_TGNLETCLR (UniProt Q14161)	0.0754	0.117
GALNT1_Q10472_212+214_GQVITFLDAHCECTVGWLEPLLAR (UniProt Q10472)	0.199	-0.475
GCN1_Q92616_1595_CLQTLLDTK (UniProt Q92616)	-0.109	-0.163
GEMIN5_Q8TEQ6_441_EGCLAFGTDDGK (UniProt Q8TEQ6)	-0.159	-0.222
GIGYF2_Q6Y7W6_573_RACDESFQPLGDIMK (UniProt Q6Y7W6)	0.146	-0.0921
GBA2_Q9HCG7_511_NMCHLRPTLR (UniProt Q9HCG7)	0.199	0.0972

Some of the entries so far, with bars between the fields:
Target | probe-labelled cysteine peptide fold change (10 µM) | probe-labelled cysteine peptide fold change (50 µM)
GINS4_Q9BRT9_53_FAPELLESKPEIVECVMEQLEHMEENLRR (UniProt Q9BRT9) | 0.0768 | -0.0213
GART_P22102_93_SAGVQCFGPTAEAAQLESSK (UniProt P22102) | 0.0279 | 0.0457
GCC2_Q8IWJ2_92_AETEQQCLSLK (UniProt Q8IWJ2) | 0.312 | 0.569
GFPT1_Q06210_55_DWEANACK (UniProt Q06210) | -0.0151 | -0.0483
GGNBP2_Q9H3C7_92_EVLSALSQLVPCVGCR (UniProt Q9H3C7) | 0.105 | 0.133
GATD1_Q8NB37_122+132_ILQHFHSESKPICAVGHGVAALCCATNEDR (UniProt Q8NB37) | 0.29 | -0.512
GARS_P41250_444_QHMENEMAHYACDCWDAESK (UniProt P41250) | 0.136 | -0.0873
GANAB_Q14697_502_DGSDYEGWCWPGSAGYPDFTNPTMR (UniProt Q14697) | -0.189 | 0.0705
GATD3B_A0A0B4J2D5_244_VVTTPAFMCETALHYIHDGIGAMVR |  | 0.0229
GDI2_P50395_302_VICILSHPIK (UniProt P50395) | -0.022 | -0.0296
GCN1_Q92616_2558_CLQNPSSDIR (UniProt Q92616) | 0.0554 | 0.000447
GAR1_Q9NY12_88_CTTDENKVPYFNAPVYLENK (UniProt Q9NY12) | -0.0888 | -0.814
GIT1_Q9Y2X7_122_LPCRDDDGVTAK (UniProt Q9Y2X7) | -0.137 | -0.385
GK_P32189_299_CVFSDHGLLTTVAYK (UniProt P32189) | 0.168 | -0.0986
GFPT1_Q06210_264_VDSTTCLFPVEEK (UniProt Q06210) | -0.0167 | 0.203
GAPVD1_Q14C86_1253_YFTTVCVR (UniProt Q14C86) | -0.00537 | 0.122
GIT1_Q9Y2X7_576_KGVSASAVPFTPSSPLLSCSQEGSR (UniProt Q9Y2X7) | -0.316 | -0.788
GAPDH_P04406_247_LTGMAFRVPTANVSVVDLTCR (UniProt P04406) | -0.101 | -0.518
GDE1_Q9NZC3_127_LCDLTFEQIR (UniProt Q9NZC3) | -0.123 | 0.0263
GDI2_P50395_202_FDLGQDVIDFTGHALALYRTDDYLDQPCYETINR (UniProt P50395) | -0.369 | -0.384
GDI1_P31150_335_KSDIYVCMISYAHNVAAQGK (UniProt P31150) | 0.246 | 0.0153
GATD1_Q8NB37_132_ILQHFHSESKPICAVGHGVAALCCATNEDR (UniProt Q8NB37) | 0.201 | 0.142
GFPT1_Q06210_570_GYHYATCLEGALK (UniProt Q06210) | 0.0515 | 0.0897
GGA2_Q9UJY4_343_VFQNPAGCMK (UniProt Q9UJY4) | -0.124 | -0.564
GAS2L1_Q99501_276_CSSTAHRPPQPR (UniProt Q99501) | 0.164 | -0.148
